Results deposited as PubChem BioAssay AID1259424 (University of Nebraska Medical Center, 2018).
This is one part, drawn at random, of about 14,000 deposited reagents. 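Higher correlation or smaller distance means closer resemblance to KSR1 loss; control wells, including KSR1 knockdowns, recur on many plates.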 Further read-outs or replicates are left out here. Reagent sequences are not shown. Not given: the time to read-out.

Screen: 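Find knockdowns that reproduce the expression shifts seen after KSR1 loss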 (primary screen)
System: human HCT116 colon cancer cells
Knock-down reagent: siRNA pool against human genes, 50 nM
Detection: 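Log2 levels of six mRNAs (branched-DNA multiplex), adjusted by two reference genes and the non-targeting median, then scored against the average KSR1 knockdown pattern as Pearson r and euclidean distance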
Reading the numbers: mean correlation with KSR1 profile: higher = expression change more like KSR1 knockdown; mean distance from KSR1 profile: higher = expression change less like KSR1 knockdown

gene symbol	mean correlation with KSR1 profile	mean distance from KSR1 profile
TMSB10	-0.514	2.1
UBAC1	-0.00804	2.15
SFRP5	0.653	3.75
PRKD2	0.377	1.79
TMEM94	-0.136	3.02
NDUFA12	0.0886	1.68
PRKAG1	0.819	1.04
RCHY1	-0.75	3.27
SMARCA2	0.266	0.846
ZCCHC9	0.86	2.48
RND1	0.643	0.79

The list goes on; the last 2 above are carried over.
gene symbol	mean correlation with KSR1 profile	mean distance from KSR1 profile
ZCCHC9	0.86	2.48
RND1	0.643	0.79
ATP5F1B	-0.0962	4.57
KRT16	0.0304	1.79
F3	-0.0755	2.02
COL11A2	-0.176	1.45
PRPF6	-0.574	3.37
ZNF134	-0.197	2.69
NFIL3	-0.41	1.78
TNFSF14	-0.53	1.8
NR2F1	0.384	1.86
